Data taken from ChEMBL document CHEMBL3988442, “University of Dundee, Small-Polar-MMV Screening Library” (2021).

By UniProt entry, the sequences of proteins in these tests, tags left out.
UniProt I6X8D2, whole entry: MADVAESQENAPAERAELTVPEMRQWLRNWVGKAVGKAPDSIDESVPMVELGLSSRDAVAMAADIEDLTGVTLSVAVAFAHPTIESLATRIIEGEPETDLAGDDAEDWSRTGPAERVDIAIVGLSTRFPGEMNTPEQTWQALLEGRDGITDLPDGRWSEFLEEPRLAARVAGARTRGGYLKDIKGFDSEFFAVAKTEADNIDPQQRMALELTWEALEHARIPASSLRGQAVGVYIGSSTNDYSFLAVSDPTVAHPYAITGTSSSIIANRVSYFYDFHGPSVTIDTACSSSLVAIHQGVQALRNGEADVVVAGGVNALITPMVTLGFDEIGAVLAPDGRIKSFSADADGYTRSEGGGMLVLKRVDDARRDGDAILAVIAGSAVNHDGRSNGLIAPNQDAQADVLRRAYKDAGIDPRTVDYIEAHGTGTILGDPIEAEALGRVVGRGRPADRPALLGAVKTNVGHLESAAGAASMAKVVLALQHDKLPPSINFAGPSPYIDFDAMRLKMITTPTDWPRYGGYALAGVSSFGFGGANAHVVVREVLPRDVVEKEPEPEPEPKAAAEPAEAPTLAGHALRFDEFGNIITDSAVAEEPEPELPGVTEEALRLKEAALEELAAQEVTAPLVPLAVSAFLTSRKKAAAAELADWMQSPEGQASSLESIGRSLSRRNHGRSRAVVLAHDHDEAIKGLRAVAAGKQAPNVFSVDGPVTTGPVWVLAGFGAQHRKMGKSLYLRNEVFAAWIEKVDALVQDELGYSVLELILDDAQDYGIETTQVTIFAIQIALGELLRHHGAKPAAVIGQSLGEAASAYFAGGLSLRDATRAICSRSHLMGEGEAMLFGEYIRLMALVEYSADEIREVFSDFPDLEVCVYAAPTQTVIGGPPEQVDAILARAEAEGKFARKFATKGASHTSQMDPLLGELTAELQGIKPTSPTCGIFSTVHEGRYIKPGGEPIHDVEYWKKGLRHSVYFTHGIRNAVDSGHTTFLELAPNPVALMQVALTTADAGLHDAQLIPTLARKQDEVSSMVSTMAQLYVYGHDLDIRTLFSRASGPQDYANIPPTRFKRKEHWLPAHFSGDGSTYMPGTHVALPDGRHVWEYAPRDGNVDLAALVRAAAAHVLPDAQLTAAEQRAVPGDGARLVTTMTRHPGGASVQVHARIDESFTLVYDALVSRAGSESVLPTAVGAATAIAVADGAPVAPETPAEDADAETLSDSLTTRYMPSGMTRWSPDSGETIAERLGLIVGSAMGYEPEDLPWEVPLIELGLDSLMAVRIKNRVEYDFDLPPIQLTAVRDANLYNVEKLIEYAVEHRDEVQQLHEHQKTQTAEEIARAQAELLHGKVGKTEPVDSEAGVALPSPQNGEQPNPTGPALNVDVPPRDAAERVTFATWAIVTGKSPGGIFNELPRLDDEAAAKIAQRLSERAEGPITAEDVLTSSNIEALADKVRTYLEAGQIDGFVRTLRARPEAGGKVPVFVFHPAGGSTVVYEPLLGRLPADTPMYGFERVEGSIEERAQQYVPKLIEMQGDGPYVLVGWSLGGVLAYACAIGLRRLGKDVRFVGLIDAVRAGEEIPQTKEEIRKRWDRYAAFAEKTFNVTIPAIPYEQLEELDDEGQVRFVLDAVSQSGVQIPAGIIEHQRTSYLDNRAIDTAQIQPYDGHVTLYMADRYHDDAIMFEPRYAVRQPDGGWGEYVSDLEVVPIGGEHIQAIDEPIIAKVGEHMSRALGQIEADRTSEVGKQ
UniProt P9WNZ1, whole entry: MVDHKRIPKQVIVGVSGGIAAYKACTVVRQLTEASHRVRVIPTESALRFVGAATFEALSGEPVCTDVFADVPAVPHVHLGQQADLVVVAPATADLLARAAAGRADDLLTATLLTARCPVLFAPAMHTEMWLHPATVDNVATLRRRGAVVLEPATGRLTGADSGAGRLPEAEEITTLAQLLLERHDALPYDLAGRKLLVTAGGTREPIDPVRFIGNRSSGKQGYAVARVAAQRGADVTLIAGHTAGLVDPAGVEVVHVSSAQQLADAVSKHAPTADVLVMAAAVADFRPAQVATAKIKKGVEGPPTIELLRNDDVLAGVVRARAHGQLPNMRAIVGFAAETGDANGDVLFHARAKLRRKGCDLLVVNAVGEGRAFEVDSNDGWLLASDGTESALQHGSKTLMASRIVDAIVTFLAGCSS
UniProt P9WFT3, whole entry: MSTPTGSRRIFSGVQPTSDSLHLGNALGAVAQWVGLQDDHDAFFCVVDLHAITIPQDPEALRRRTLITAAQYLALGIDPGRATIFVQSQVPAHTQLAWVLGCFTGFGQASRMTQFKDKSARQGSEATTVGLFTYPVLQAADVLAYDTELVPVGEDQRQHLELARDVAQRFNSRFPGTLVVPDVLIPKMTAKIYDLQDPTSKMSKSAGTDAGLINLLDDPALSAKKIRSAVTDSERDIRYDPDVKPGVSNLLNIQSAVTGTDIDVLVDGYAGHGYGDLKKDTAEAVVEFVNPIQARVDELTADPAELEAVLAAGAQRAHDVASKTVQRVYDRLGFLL

A: 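Polyketide synthase Pks13, Mycobacterium tuberculosis (UniProt I6X8D2). Enzyme assay of the thioesterase domain of polyketide synthase 13; the read-out is not stated. Compounds at 30 µM. The record gives no direction; the compounds picked for IC50 retests had high values, so higher reads as stronger inhibition. Of about 67,000 compounds tested this way, about 300 (0.46%) reached 50% or more in at least one test.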
B: 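Enzyme assay of CoaBC with a phosphate dye (Biomol Green) read at 650 nm. Target: Coenzyme A biosynthesis protein CoaBC, Mycobacterium tuberculosis (UniProt P9WNZ1). Concentration: 30 µM. Higher reads as stronger inhibition, judged from the few compounds that gave an IC50. Most strong results did not repeat in a second test. Of about 67,000 compounds tested this way, about 40 (0.06%) reached 50% or more in at least one test.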
C: 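Cell assay of Leishmania donovani living inside macrophages; the read-out is not stated. Compounds at 30 µM. The record gives no direction; compounds that gave an IC50 in retests scored well above the rest, so higher reads as stronger inhibition. About 69,000 compounds were tested under these conditions; 1.5% (about 1,000) showed 50% or more at least once.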
D: 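Tryptophan-tRNA ligase, Mycobacterium tuberculosis (UniProt P9WFT3). Enzyme assay of tryptophanyl-tRNA synthetase; the read-out is not stated. Compounds at 10 µM. Direction is not recorded; retested compounds ran higher, which suggests that high means inhibition. Size under these conditions: about 65,000 compounds, about 64 of them at 50% or above in at least one test.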

The filed quantity is “Percent Effect” (%). The record does not define 0% and 100%; most values in the screen are far below 50% and negative numbers occur (in some assays of this library far below -100). Compounds were drawn at random from those tested, without regard to their results. Two or more numbers in one place are separate tests of the same structure; such repeats can differ widely.

Result for Cc1nc(CN2C(=O)CC[C@@H]3[C@H]2CCN3C2CCOCC2)cs1 was A: -0.2523%; B: 3.716%; D: 7.126%. N#Cc1ccc(NC(=O)N2CCCCC2CN2CCCC2=O)cc1 (stereo not given) gave A: -20.74%; B: 5.645%; C: 11.47%; D: 1.09%. Cc1nc(CCCNC(=O)Nc2cc(F)cc(F)c2)n[nH]1 read A: -1.505%; B: 0.9709%; C: 23.5%; D: 1.44%. Cc1nccn1CCCNc1nccnc1C#N read A: 13.85%; B: 3.418%; C: -4.864%; D: 4.215%.

For CC(C)NC(=O)CC1COC2(CCN(Cc3cccnc3)CC2)C1 (stereo not given) the result was A: -21.77%; B: 6.353%; D: -2.488%. For CC1CCN(c2ccc(NC(=O)CCn3cccn3)cc2)CC1 the result was A: -7.198%; B: 0.6053%; C: 16.17%; D: -1.866%. Result for COCCC(=O)N1CCC2(COCc3cnc(N4CCOCC4)nc32)C1 (stereo not given) was A: -15.7%; B: 12.95%; C: -10.24%; D: 7.401%. With Cn1cnc(S(=O)(=O)NCCCN2CCCC2)c1Cl the screen gave A: 13.3%; B: 8.114%; C: 31.08%; D: -9.508%.

For Cc1cc(CN(Cc2ccccc2)C(C)CN2CCOCC2)no1 (stereo not given) the result was A: -30.35%; B: -9.402%; C: -18.87%; D: -8.494%. Cn1cccc1C(=O)N1CCC2(CCCN2c2ncccn2)CC1.O=C(O)C(F)(F)F read C: 30.1%. Result for Cc1ccc(Nc2nccc(C3CCN(C(=O)CO)C3)n2)nc1 (stereo not given) was A: -1.536%; B: 11.19%; C: -14.87%; D: -2.888%. Cc1cnn(CC2CN(CC(=O)N(C)Cc3cccs3)CCO2)c1 (stereo not given) gave A: -13.1%; B: 8.735%; C: -23.41%; D: 0.08446%.

For CC(C)Cc1ccc(C(=O)Cn2cnnc2[S+](C)[O-])cc1 (stereo not given) the result was A: -26.99%; B: 1.717%; C: -25.03%; D: -3.254%. COC(=O)C(C)(C)NC(=O)C1CC(=O)N(C2CC2)C1 (stereo not given) read A: -5.136%; B: 4.685%; C: 10.58%; D: -5.006%. With COCc1cccc(C(=O)N(C)Cc2ncc(C)c(OC)c2C)c1 the screen gave A: -15.17%; B: 0.2457%; C: 20.46%; D: 2.179%. Result for CC(C)N1CCC2(CCNCC2)C1=O was A: -25.2%; B: 2.188%; D: -1.744%.

Cc1nn(CCO)c(C)c1CNC1CCC(C)(C)c2ccccc21 (stereo not given) read A: -15.02%; B: -7.589%; C: 37.99%; D: 3.908%. With Cc1ccsc1CN(C)Cc1ncccc1C(=O)O the screen gave A: -18.87%; B: 7.042%; C: 0.4531%; D: -0.838%. CCC[C@@H]1CN(Cc2c[nH]nc2-c2ccc(OC)cc2)C[C@H]1NC(C)=O gave A: -13.99%; B: 27.87% and 5.291%; C: 5.12%; D: -0.7322%.